# Source: PubChem BioAssay AID2551 (National Center for Advancing Translational Sciences (NCATS), 2010)
# The chains behind the UniProt entries cited, without tags or fusion partners. Where a name states a change or a piece, a line headed by the entry shows the natural chain unless it says otherwise.
# UniProt P51450: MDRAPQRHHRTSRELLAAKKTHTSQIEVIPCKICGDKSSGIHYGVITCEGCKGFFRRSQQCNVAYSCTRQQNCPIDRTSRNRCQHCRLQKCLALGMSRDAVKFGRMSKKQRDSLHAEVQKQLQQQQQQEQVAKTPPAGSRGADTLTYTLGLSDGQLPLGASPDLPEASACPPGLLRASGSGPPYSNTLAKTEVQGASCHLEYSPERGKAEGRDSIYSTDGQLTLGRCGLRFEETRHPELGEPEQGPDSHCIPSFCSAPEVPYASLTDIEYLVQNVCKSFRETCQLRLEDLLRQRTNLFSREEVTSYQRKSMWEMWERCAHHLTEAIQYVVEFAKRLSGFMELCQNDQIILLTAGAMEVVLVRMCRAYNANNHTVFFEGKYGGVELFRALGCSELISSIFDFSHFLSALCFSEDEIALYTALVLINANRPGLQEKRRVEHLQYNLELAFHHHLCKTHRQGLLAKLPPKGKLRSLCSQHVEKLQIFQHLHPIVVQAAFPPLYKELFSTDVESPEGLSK
# Screen size: about 310,000 compounds; about 17,000 (5.5%) were called active. This list was built around the results that the source calls inconclusive (neither active nor inactive); the mix of calls is not that of the screen. Calls come from the whole dose curve; as a rule, active = well fitted inhibition curve with a large enough effect; inconclusive = small, poorly fitted or top-dose-only effect, or effect the other way; inactive = no such curve, though single readings can be large or run the other way. Potencies beside an inconclusive call are fits to weak or partial responses and may not hold up.
# Target: Nuclear receptor ROR-gamma (Mus musculus) (UniProt P51450)
# Assay: qHTS for inhibitors of ROR gamma transcriptional activity; note: nearly all actives have a fitted effect of over 60% in size
# Settings: Drosophila S2 Gal4-RORgamma UAS-luciferase reporter, 20 h; activity change, negative = inhibition: at 53.6 µM (top of the series)
# Method in brief: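 Stably transfected Drosophila Schneider cells are the test system, with ROR gamma fused to Gal4 and luciferase under UAS control; luminescence is read after 20 hr of 700 uM copper sulfate induction at ambient temperature.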
# % is set by controls: 0 for no effect and ±100 for the full control effect; potency is the fitted concentration of half-maximal effect.
Compound,"activity change, negative = inhibition",Potency
CN1C(=O)Cc2cc(S(=O)(=O)NCCc3ccc(Cl)cc3)ccc21,inactive: -7.04%,
COc1ccc2ccccc2c1/C=N/NC(=O)c1sc(N)c(C#N)c1C,,"inconclusive: 22.4 µM [inhibitor, single point]"
O=C1/C(=C/c2ccncc2)CCc2ccccc21,,"inconclusive: 35.5 µM [inhibitor, single point]"
Cc1cccc(/C=N/NC(=O)Cc2ccc(Cl)cc2)c1O,,active: 1.12 µM
Cc1cc(N2CCN(c3nc4ccccc4s3)CC2)n2ncnc2n1,,"inconclusive: 5.62 µM [activator, single point]"
COC(=O)C(Cc1ccc(OC(=O)c2ccc(C)cc2)cc1)N1Cc2ccccc2C1=O (configuration not stated),,"inconclusive: 35.5 µM [activator, single point]"
Cc1cccc(C)c1NC(=S)N(Cc1ccccc1)Cc1cccs1,,active: 7.08 µM
O=[N+]([O-])c1cccc2ncccc12,inactive: 24.3%,
COc1cccc(/C=C2\SC(=S)N(CCC(=O)N3CCCCC3CCO)C2=O)c1 (configuration not stated),,"inconclusive: 14.1 µM [inhibitor, partial curve]"
Cc1ccc(Nc2nc(CSc3nnc(-c4ccncc4)n3C)cs2)cc1,,active: 15.8 µM
S=c1nc(C2CCCCC2)[nH][nH]1,,"inconclusive: 31.6 µM [inhibitor, single point]"
COc1ccccc1CNC(=O)CC(C)C,inactive: 7.47%,
COc1ccc(NC(=O)c2cccc(-n3c(C)ccc3C)c2)c(OC)c1,,"inconclusive: 11.2 µM [activator, partial curve]"
CC(=O)c1ccc(NC(=S)NC(=O)/C=C/c2ccc(F)cc2)cc1,,"inconclusive: 11.2 µM [inhibitor, partial curve]"
COc1ccc(Br)cc1/C=N/NC(=O)CNC(=O)/C=C/c1ccccc1,,"inconclusive: 15.8 µM [inhibitor, single point]"
CCOc1ccc(N2C(=O)CC(SCCN)C2=O)cc1 (configuration not stated),,"inconclusive: 15.8 µM [inhibitor, single point]"
O=C(NCC1CC1)[C@@H]1C[C@H]1[C@@H](NP(=O)(c1ccccc1)c1ccccc1)c1ccccc1,,inactive
O=C(Nc1ccc(Nc2ccccc2)cc1)C1CC1,,"inconclusive: 35.5 µM [activator, single point]"
O=C(Nc1nc(-c2ccncc2)cs1)C1c2ccccc2Oc2ccccc21,inactive: 1.52%,
CCOc1ccc(NC(=O)c2c(NC(=O)CNCCN3CCOCC3)sc3c2CCC3)cc1,,active: 0.562 µM
C/C=C\C(=O)Nc1cccc(C2=NOC3(C2)C[C@@H](C(N)=O)N(C(=O)CC(c2ccccc2)c2ccccc2)C3)c1 (some centres not stated),,"inconclusive: 35.5 µM [activator, single point]"
OC1(c2cccc(C(F)(F)F)c2)CCN(c2ccc(-c3ccccc3)nn2)CC1,,"inconclusive: 25.1 µM [activator, single point]"
NC(=O)c1c(NC(=O)c2cccnc2)sc2c1CCCCC2,,"inconclusive: 1.26 µM [activator, single point]"
CCCn1c(C(C)Nc2nc(-c3cccc(Br)c3)cs2)nc2ccccc21 (configuration not stated),,active: 4.47 µM

# A few values from the entries so far:
# Entry for `C/C=C\C(=O)Nc1cccc(C2=NOC3(C2)C[C@@H](C(N)=O)N(C(=O)CC(c2ccccc2)c2ccccc2)C3)c1` (some centres not stated) under Potency: inconclusive: 35.5 µM [activator, single point]
# Entry for `Cc1ccc(Nc2nc(CSc3nnc(-c4ccncc4)n3C)cs2)cc1` under Potency: active: 15.8 µM
# Entry for `Cc1cc(N2CCN(c3nc4ccccc4s3)CC2)n2ncnc2n1` under Potency: inconclusive: 5.62 µM [activator, single point]

# Next part:

Compound,"activity change, negative = inhibition",Potency
CCN1CCN(Cc2ccc(NC(=O)c3cc(NC(=O)c4cc(-c5ccc(OC)cc5)n[nH]4)cc(OC)c3)cc2C(F)(F)F)CC1,,"inconclusive: 20 µM [inhibitor, single point]"
CC(C)(C)NC(=O)C(c1ccc(O)cc1)N(Cc1ccco1)C(=O)CCC(=O)Nc1ccccn1 (configuration not stated),,"inconclusive: 6.31 µM [activator, single point]"
O=C(COC(=O)c1ccc2c(c1)OCO2)Nc1ccccc1,,"inconclusive: 15.8 µM [activator, single point]"
CCC1CN(C(=O)N2CCC(C(=O)NCc3cccc(OC)c3OC)CC2)c2cc(C)ccc2O1 (configuration not stated),inactive: 6.87%,
COc1ccc(C2/C(=C(\O)c3ccc(OC)c(Cl)c3)C(=O)C(=O)N2CCN(C)C)cc1 (configuration not stated),,"inconclusive: 6.31 µM [inhibitor, single point]"
COC(=O)c1ccc(CN2C(=O)NC3(CCC(C)CC3)C2=O)cc1 (configuration not stated),inactive: 18.6%,
CCN(CC(=O)N1CCOCC1)S(=O)(=O)c1ccccc1,,"inconclusive: 2.51 µM [inhibitor, partial curve, poor fit]"
CC(C)(C)c1ccc(Oc2ccc(NC(=O)C3CC=CCC3C(=O)O)cc2)cc1 (configuration not stated),,"inconclusive: 22.4 µM [inhibitor, single point]"
Cc1cc(OCC(=O)Nc2ccncc2)ccc1[N+](=O)[O-],,active: 5.01 µM
COc1cc(C(F)(F)F)c(C(=O)N(C)Cc2ccc(Cl)c(Cl)c2)cn1,,"inconclusive: 7.08 µM [activator, partial curve]"
COC(=O)Nc1ccc2[nH]cc(CCNC(C)=O)c2c1,,inactive
CC(NC(=O)c1noc2c1CCCC2)c1ccccc1 (configuration not stated),inactive: 22.8%,
CCc1ccc(NC(=O)CCn2c(=O)c3cccn3c3ccccc32)cc1,,"inconclusive: 5.01 µM [activator, partial curve]"
Fc1ccc(Br)cc1C1C=C(c2cccnc2)Nc2ncnn21 (configuration not stated),inactive: -1.22%,
O=C(CN(C(=O)c1csnn1)c1ccccc1C(F)(F)F)NCc1ccccc1,,"inconclusive: 8.91 µM [activator, partial curve]"
O=C(c1ccc2c(c1)OCO2)N1CCN(S(=O)(=O)N2CCCCC2)CC1,inactive: 0.342%,
CCOC(=O)Cn1c(=S)[nH]c2c(oc3ccc(Cl)cc32)c1=O,,"inconclusive: 35.5 µM [inhibitor, single point]"
Cc1c(NC(=O)C(C)OC(=O)c2cc(-c3cccc4ccccc34)nc3ccccc23)c(=O)n(-c2ccccc2)n1C (configuration not stated),,"inconclusive: 22.4 µM [activator, single point]"
Cc1cc(NC(=O)CCN2CCN(Cc3ccccc3)CC2)ccc1Br,inactive: 18.5%,
Cc1ccc(C)c(NC(=O)CSc2nnc(CSc3nc(C)cc(C)n3)n2Cc2ccco2)c1,inactive: -23.9%,
O=C(CC1Sc2ccccc2NC1=O)OCC(=O)N1CCc2ccccc21 (configuration not stated),,"inconclusive: 25.1 µM [activator, single point]"
O=C(CCC1CCCN(C(=O)c2ccc3[nH]ccc3c2)C1)N1CCN(c2ccccn2)CC1 (configuration not stated),,"inconclusive: 6.31 µM [activator, single point]"
CCCCSc1nnc(-c2c[nH]c3ccccc23)n1C,,"inconclusive: 2.24 µM [activator, full curve]"
CNc1nc(C)nc(-n2nc(C)cc2C)n1,,active: 6.31 µM

Compound,"activity change, negative = inhibition",Potency
Cn1c(SCc2cc(=O)[nH]c3ccccc23)nnc1-c1ccc(Br)cc1,inactive: 17.6%,
CCSc1nnc(NC(=O)CSc2nnc(CNC(=O)c3ccc(OC)cc3)o2)s1,,"inconclusive: 8.91 µM [inhibitor, partial curve]"
CC(=O)/C(=N\Nc1ccccc1)Sc1nnc(-c2ccccc2)n1-c1ccccc1,,active: 10 µM
O=C(Cn1ccc2cc(S(=O)(=O)N3CCCCC3)ccc21)NCc1ccccc1F,,"inconclusive: 22.4 µM [activator, single point]"
Cc1ccc(C(=O)N/C(=C\c2ccc(-c3ccccc3[N+](=O)[O-])o2)C(=O)NCCCN(C)C)cc1,inactive: -43.4%,
Cc1cccc(NC(=O)COC(=O)CCCC2=NS(=O)(=O)c3ccccc3N2)c1,inactive: -5.63%,
Cc1c(C(=O)NC(=S)Nc2ccc(N3CCOCC3)cc2)cccc1[N+](=O)[O-],,active: 8.91 µM
O=C1CCCC2=C1C(c1ccccc1)C1C(=O)c3ccccc3C1=N2 (configuration not stated),,"inconclusive: 11.2 µM [inhibitor, partial curve]"
Cc1cc(NC(=S)N(CCCN2CCOCC2)Cc2ccco2)ccc1Cl,,"inconclusive: 31.6 µM [inhibitor, single point]"
O=c1c2ccccc2ncn1-c1cccc(Cl)c1,,"inconclusive: 22.4 µM [activator, single point]"
CCOC(=O)C(=CNc1cc(C)nn1-c1ccc(C)cc1)C(=O)OCC,inactive: 2.91%,
COc1ccc2[nH]cc(CCNc3nc(-c4cccnc4)nc4ccccc34)c2c1,inactive: 20.7%,
CC(C)n1cnc2cc(NCc3nc4ccccc4n3C)ccc21,,"inconclusive: 1.78 µM [inhibitor, full curve, poor fit]"
Nc1cccc(C(=O)OCC(=O)NC2CCCc3ccccc32)c1 (configuration not stated),,"inconclusive: 15.8 µM [activator, partial curve]"
CC(=O)c1c(C)[nH]c(C(=O)Nc2cc(C)cc(C)c2)c1C,,"inconclusive: 35.5 µM [activator, single point]"
O=C(NNC(=S)NC(=O)c1ccccc1Cl)c1cccc([N+](=O)[O-])c1,,"inconclusive: 17.8 µM [inhibitor, single point]"
CCOC(=O)c1ccc(N=CC2=C(O)CC(C)(C)CC2=O)cc1,inactive: 19.3%,
COc1cc(-c2n[nH]c(=S)n2-c2ccccc2C(F)(F)F)cc(OC)c1OC,,"inconclusive: 0.501 µM [inhibitor, partial curve, poor fit]"
Cc1c(C)n(Cc2ccc(Cl)cc2)c2ccc(C(=O)NCCN3CCOCC3)cc12,inactive: -22%,
Cc1cc(C)c(S(=O)(=O)Nc2ccc3c4c(cccc24)CC3)c(C)c1,,active: 11.2 µM
Cc1cccc(NC(=S)N2CCC(C(N)=O)(N3CCCCC3)CC2)c1C,inactive: -20.6%,
Cc1nc(N2CCC(C)CC2)c2c(C)c(C(=O)Nc3ccc4c(c3)OCCO4)sc2n1,inactive: 23.1%,
Cn1c(=O)[nH]c(=O)c2c1nc(N1CCCCCC1)n2CCCSc1nnnn1-c1ccccc1,,"inconclusive: 17.8 µM [activator, single point]"
Cc1ncc(CO)c(/C=N/Nc2ccc(C(F)(F)F)cn2)c1O,,"inconclusive: 25.1 µM [inhibitor, single point]"
